Measurements: paper PMC4676093
These are yes or no findings as the source states them, for the method shown. In cells and extracts the contact can be indirect. Binding calls can cover weak binding; strength is not graded here.

Amino acid sequences for entries named in this document (tags omitted). A change or cut given only in a name is not applied to a line headed by its entry. Chains listed by the source or under a name are the forms on record and can include a tag or linker.
UniProt Q9NUM4: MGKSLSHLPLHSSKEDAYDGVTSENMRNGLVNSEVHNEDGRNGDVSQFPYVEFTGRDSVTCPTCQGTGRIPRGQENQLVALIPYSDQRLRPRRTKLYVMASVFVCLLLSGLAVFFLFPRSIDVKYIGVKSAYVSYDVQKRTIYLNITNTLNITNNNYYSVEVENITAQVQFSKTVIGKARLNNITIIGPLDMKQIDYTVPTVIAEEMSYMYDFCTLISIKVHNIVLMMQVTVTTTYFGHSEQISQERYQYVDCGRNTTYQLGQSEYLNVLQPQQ
Flag-tagged TMEM106B S185 variant (transmembrane protein 106B) (Q9NUM4, form named): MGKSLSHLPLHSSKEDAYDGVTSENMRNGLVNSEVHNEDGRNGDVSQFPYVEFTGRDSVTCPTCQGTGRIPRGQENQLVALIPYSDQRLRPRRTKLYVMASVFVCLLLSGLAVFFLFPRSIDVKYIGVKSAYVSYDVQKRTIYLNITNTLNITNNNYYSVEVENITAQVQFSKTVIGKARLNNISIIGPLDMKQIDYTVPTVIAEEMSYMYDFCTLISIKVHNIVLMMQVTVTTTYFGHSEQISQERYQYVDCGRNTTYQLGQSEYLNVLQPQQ
UniProt Q9UQN3: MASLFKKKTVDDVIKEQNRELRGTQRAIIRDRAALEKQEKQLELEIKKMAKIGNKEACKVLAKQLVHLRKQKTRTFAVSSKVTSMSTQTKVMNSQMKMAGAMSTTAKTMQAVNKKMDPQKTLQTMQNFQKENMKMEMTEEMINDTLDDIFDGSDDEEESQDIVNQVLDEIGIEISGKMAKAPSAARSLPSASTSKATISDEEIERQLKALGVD

Columns and labels:
[1] = biological target: Flag-tagged TMEM106B T185 variant (transmembrane protein 106B) (human) (UniProt Q9NUM4); assay: co-IP; HEK293T cells transfected with flag-tagged TMEM106B variants (alone, or with CHMP2B^Intron5-cMyc); lysis in 50 mM Tris-HCl pH 7.5, 150 mM NaCl, 1 % NP40, 0.5 % sodium deoxycholate; anti-FLAG antibody overnight at 4 °C, Protein G agarose; blots with anti-CHMP2B, anti-cMyc or anti-flag
[2] = biological target: Flag-tagged TMEM106B S185 variant (transmembrane protein 106B) (human) (UniProt Q9NUM4); assay: as above

“CHMP2B^Intron5-cMyc (FTD-3-linked mutant of charged multivesicular body protein 2B) (from UniProt Q9UQN3)” was tested, and the binding [1] was “binds” and the binding [2] was “binds”.
